The results in this text go back to patent US20250345512A1, “COMBINATION SODIUM-GLUCOSE COTRANSPORTER INHIBITOR (SGLTI) INSULIN THERAPY FOR GLYCEMIC CONTROL IN TYPE 1 DIABETES” (University of Virginia Patent Foundation, priority 2022, published 2025).

The structures appear in SMILES notation.

The subject of this data set is participants with T1D. The data set is described as follows: Same trial (NCT04201496): injected insulin amounts (technical performance metric). It is filed as in vivo, human. The conditions noted are these: for infused insulin decrease / reduction: EMPA vs NOEMPA on same insulin system; for Injected Insulin (IU/kg · day): n = 16, mean ± SD.
[1] abbreviates: daytime (7:00-23:00), CIQ-EMPA vs. BIQ-NOEMPA, BIQ-EMPA vs. CIQ-NOEMPA.
Where [2] appears, read: daytime (7:00-23:00), CIQ-EMPA vs. CIQ-NOEMPA, BIQ-EMPA vs. BIQ-NOEMPA.
Where [3] appears, read: overall, CIQ-EMPA vs. BIQ-NOEMPA, BIQ-EMPA vs. CIQ-NOEMPA.
Setting [4] is: overall, CIQ-EMPA vs. CIQ-NOEMPA, BIQ-EMPA vs. BIQ-NOEMPA.
Where [5] appears, read: overnight, CIQ-EMPA vs. BIQ-NOEMPA, BIQ-EMPA vs. CIQ-NOEMPA.

For `OC[C@H]1O[C@@H](c2ccc(Cl)c(Cc3ccc(O[C@H]4CCOC4)cc3)c2)[C@H](O)[C@@H](O)[C@@H]1O` [CIQ-EMPA, empagliflozin], the “infused insulin decrease / reduction” value (24/7, listed as AID-EMPA) is 24% and the “infused insulin decrease / reduction” value (overnight, listed as AID-EMPA) was determined as 35.3%. In addition, the “Difference (95% CI): Total Injected Insulin (IU/kg · day)” value is, setting by setting: (daytime (7:00-23:00), head prints CIQ-EMPA vs. BIQ-NOEMPA) 0.04 IU/kg · day; under setting [1], −0.06 IU/kg · day; under setting [2], −0.11 IU/kg · day; (overnight, CIQ-EMPA vs. BIQ-EMPA) 0.02(0 IU/kg · day; under setting [5], 0(−0.009 IU/kg · day; (overnight, CIQ-EMPA vs. CIQ-NOEMPA, BIQ-EMPA vs. BIQ-NOEMPA, listed as AID-EMPA) −0.06 IU/kg · day. The “Injected Insulin (IU/kg · day)” value reads like this: (daytime (7:00-23:00)) 0.41 ± 0.13 IU/kg · day; (overall) 0.52 ± 0.15 IU/kg · day; (overnight) 0.11 ± 0.04 IU/kg · day. In addition, the “Difference: Total Injected Insulin (IU/kg · day)” value was 0.03 IU/kg · day (overall, head prints CIQ-EMPA vs. BIQ-NOEMPA); −0.13 IU/kg · day under setting [3]; −0.17 IU/kg · day under setting [4]; −0.17 IU/kg · day (overall, CIQ-EMPA vs. CIQ-NOEMPA, BIQ-EMPA vs. BIQ-NOEMPA, listed as AID-EMPA).
For the compound `OC[C@H]1O[C@@H](c2ccc(Cl)c(Cc3ccc(O[C@H]4CCOC4)cc3)c2)[C@H](O)[C@@H](O)[C@@H]1O` [BIQ-EMPA, empagliflozin], the “infused insulin decrease / reduction” value (24/7, listed as PLGS-EMPA) is recorded as 25% and the “infused insulin decrease / reduction” value (overnight, listed as PLGS-EMPA) was determined as 40%. The “Difference (95% CI): Total Injected Insulin (IU/kg · day)” value is, setting by setting: under setting [1], −0.15 IU/kg · day; under setting [2], −0.09 IU/kg · day; under setting [5], −0.00 IU/kg · day; (overnight, CIQ-EMPA vs. CIQ-NOEMPA, BIQ-EMPA vs. BIQ-NOEMPA) −0.05 IU/kg · day. Moreover, the “Injected Insulin (IU/kg · day)” value by setting is: (daytime (7:00-23:00)) 0.37 ± 0.09 IU/kg · day; (overall) 0.50 ± 0.12 IU/kg · day; (overnight) 0.09 ± 0.03 IU/kg · day. Further, the “Difference: Total Injected Insulin (IU/kg · day)” value runs as follows: under setting [3], −0.20 IU/kg · day; under setting [4], −0.56 IU/kg · day.
